Measurements taken from the supplement of paper PMC6078165.
± gives the standard deviation of the averaged measurements. The reference is the same well before dosing, and untreated signal decays as well.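 The cancer cells are triple-negative breast cancer lines of basal-like or mesenchymal-like type, grown without fibroblasts. A drop in red signal reflects loss of mitochondrial integrity, a stand-in for apoptotic death.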

Assays:
[1] = system: MDAMB436; assay: relative JC-1 red fluorescence (viability) vs pre-drug, monoculture (fraction); higher = more viable cancer cells; settings: coculture fibroblast: none (monoculture)
Procedure: (§1)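 JC-1 labelled TNBC cells grown in monoculture (density kept equal with unlabelled cancer cells) in 384-well plates in FluoroBrite medium, treated with one of 42 anticancer drugs at 0.1, 1, 10 or 100 uM. JC-1 red fluorescence (mitochondrial integrity, surrogate of apoptotic death) was read by plate reader every 8 h for 72 h. Values are normalised to each well's pre-drug value, with background from alamethicin. The stock of one drug was tenfold lower, so its dose labels may be too high. Monoculture values are repeated alongside each fibroblast plate and are averaged here.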

[2] = system: HCC1143; assay: as above; settings: coculture fibroblast: none (monoculture)
Procedure: as §1

COc1cc([C@@H]2c3cc4c(cc3[C@@H](O[C@@H]3O[C@@H]5CO[C@@H](C)O[C@H]5[C@H](O)[C@H]3O)[C@H]3COC(=O)[C@H]23)OCO4)cc(OC)c1O [Etoposide]
relative JC-1 red fluorescence
Settings	8 h	16 h	24 h	32 h	40 h	48 h	56 h	64 h	72 h
[1], 0.1 µM	0.896 ± 0.013	0.87 ± 0.028	0.856 ± 0.013	0.921 ± 0.079	0.83 ± 0.03	0.811 ± 0.078	0.868 ± 0.025	0.825 ± 0.099	0.864 ± 0.073
[1], 1 µM	0.832 ± 0.039	0.816 ± 0.038	0.879 ± 0.057	0.873 ± 0.07	0.896 ± 0.087	0.8104 ± 0.0049	0.853 ± 0.029	0.833 ± 0.011	0.882 ± 0.015
[1], 10 µM	0.8657 ± 0.0086	0.817 ± 0.022	0.841 ± 0.042	0.802 ± 0.068	0.815 ± 0.07	0.81 ± 0.1	0.821 ± 0.11	0.837 ± 0.13	0.852 ± 0.14
[1], 100 µM	0.857 ± 0.027	0.843 ± 0.013	0.877 ± 0.013	0.851 ± 0.025	0.862 ± 0.054	0.898 ± 0.061	0.909 ± 0.069	0.923 ± 0.078	0.889 ± 0.016
[2], 0.1 µM	0.8684 ± 0.002	0.7632 ± 0.0074	0.691 ± 0.015	0.623 ± 0.02	0.569 ± 0.034	0.536 ± 0.039	0.511 ± 0.045	0.497 ± 0.055	0.48 ± 0.06
[2], 1 µM	0.843 ± 0.011	0.762 ± 0.0076	0.7085 ± 0.0042	0.647 ± 0.0074	0.5942 ± 0.00071	0.557 ± 0.0069	0.5257 ± 0.0044	0.507 ± 0.0093	0.486 ± 0.01
[2], 10 µM	0.896 ± 0.052	0.82 ± 0.044	0.778 ± 0.062	0.735 ± 0.076	0.706 ± 0.084	0.69 ± 0.077	0.672 ± 0.079	0.662 ± 0.083	0.641 ± 0.077
[2], 100 µM	0.8823 ± 0.0013	0.8016 ± 0.0011	0.726 ± 0.026	0.672 ± 0.048	0.626 ± 0.058	0.579 ± 0.068	0.554 ± 0.084	0.523 ± 0.079	0.499 ± 0.084

CCN(CC)CCNC(=O)c1c(C)[nH]c(/C=C2\C(=O)Nc3ccc(F)cc32)c1C [Sunitinib]
relative JC-1 red fluorescence
Settings	8 h	16 h	24 h	32 h	40 h	48 h	56 h	64 h	72 h
[1], 0.1 µM	0.83 ± 0.022	0.766 ± 0.03	0.771 ± 0.04	0.737 ± 0.068	0.723 ± 0.077	0.725 ± 0.086	0.735 ± 0.097	0.732 ± 0.1	0.747 ± 0.11
[1], 1 µM	0.859 ± 0.011	0.746 ± 0.024	0.772 ± 0.034	0.728 ± 0.041	0.718 ± 0.045	0.728 ± 0.048	0.719 ± 0.054	0.711 ± 0.058	0.719 ± 0.06
[1], 10 µM	0.751 ± 0.032	0.647 ± 0.027	0.598 ± 0.028	0.525 ± 0.026	0.481 ± 0.017	0.457 ± 0.026	0.431 ± 0.029	0.395 ± 0.031	0.383 ± 0.019
[1], 100 µM	0.6001 ± 0.0038	0.414 ± 0.032	0.395 ± 0.027	0.334 ± 0.035	0.308 ± 0.03	0.309 ± 0.03	0.28 ± 0.038	0.273 ± 0.046	0.276 ± 0.045
[2], 0.1 µM	0.853 ± 0.025	0.758 ± 0.009	0.7055 ± 0.0036	0.65874 ± 0.00061	0.623 ± 0.0017	0.604 ± 0.0099	0.586 ± 0.0081	0.5729 ± 0.00022	0.5655 ± 0.0012
[2], 1 µM	0.884 ± 0.0091	0.798 ± 0.018	0.75 ± 0.033	0.702 ± 0.041	0.664 ± 0.043	0.629 ± 0.044	0.607 ± 0.048	0.586 ± 0.058	0.573 ± 0.057
[2], 10 µM	0.8419 ± 0.0062	0.641 ± 0.034	0.522 ± 0.064	0.436 ± 0.063	0.371 ± 0.059	0.312 ± 0.047	0.272 ± 0.041	0.239 ± 0.026	0.208 ± 0.016
[2], 100 µM	0.316 ± 0.027	0.225 ± 0.023	0.223 ± 0.026	0.202 ± 0.023	0.187 ± 0.018	0.191 ± 0.018	0.18 ± 0.015	0.17 ± 0.012	0.166 ± 0.015

Nc1ccn([C@@H]2O[C@H](CO)[C@@H](O)C2(F)F)c(=O)n1 [Gemcitabine]
relative JC-1 red fluorescence
Settings	8 h	16 h	24 h	32 h	40 h	48 h	56 h	64 h	72 h
[1], 0.1 µM	0.85 ± 0.023	0.783 ± 0.026	0.77636 ± 0.00069	0.7386 ± 0.0056	0.7453 ± 0.0049	0.7568 ± 0.0034	0.7757 ± 0.00089	0.7945 ± 0.0036	0.8097 ± 0.0029
[1], 1 µM	0.854 ± 0.011	0.716 ± 0.012	0.727 ± 0.027	0.686 ± 0.029	0.666 ± 0.039	0.663 ± 0.039	0.657 ± 0.046	0.665 ± 0.046	0.664 ± 0.043
[1], 10 µM	0.886 ± 0.019	0.761 ± 0.035	0.769 ± 0.064	0.711 ± 0.073	0.707 ± 0.09	0.703 ± 0.1	0.71 ± 0.11	0.714 ± 0.11	0.718 ± 0.13
[1], 100 µM	0.86 ± 0.016	0.8143 ± 0.0065	0.774 ± 0.0082	0.7 ± 0.012	0.669 ± 0.028	0.656 ± 0.026	0.64 ± 0.025	0.636 ± 0.029	0.627 ± 0.036
[2], 0.1 µM	0.9152 ± 0.0059	0.866 ± 0.041	0.775 ± 0.046	0.719 ± 0.05	0.654 ± 0.057	0.609 ± 0.051	0.578 ± 0.05	0.56 ± 0.052	0.529 ± 0.048
[2], 1 µM	0.8687 ± 0.0011	0.76823 ± 0.00041	0.7024 ± 0.0027	0.6411 ± 0.001	0.596 ± 0.008	0.545 ± 0.0037	0.5037 ± 0.0016	0.472 ± 0.0082	0.458 ± 0.015
[2], 10 µM	0.88937 ± 0.00072	0.80659 ± 0.00049	0.7214 ± 0.0048	0.6672 ± 0.0066	0.625 ± 0.0088	0.5936 ± 0.0014	0.5678 ± 0.00084	0.55096 ± 7.7e-05	0.54 ± 0.0059
[2], 100 µM	0.89815 ± 0.00049	0.813 ± 0.012	0.753 ± 0.025	0.714 ± 0.039	0.668 ± 0.031	0.631 ± 0.025	0.618 ± 0.023	0.607 ± 0.012	0.5954 ± 0.0042
